Assay results as given in article doi:10.1101/188383.
Results are given in words; binding and its absence hold for the method and conditions named. In cells and extracts the contact can be indirect. Some results given as binding are weak or reduced against the parent protein; the word gives no strength.

The chains behind the UniProt entries cited, without tags or fusion partners. Residues count along the entry.
UniProt P24605, 17-137: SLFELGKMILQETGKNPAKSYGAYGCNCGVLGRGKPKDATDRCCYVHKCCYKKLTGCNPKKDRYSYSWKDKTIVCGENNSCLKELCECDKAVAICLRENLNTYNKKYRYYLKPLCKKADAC
UniProt P09405, whole entry: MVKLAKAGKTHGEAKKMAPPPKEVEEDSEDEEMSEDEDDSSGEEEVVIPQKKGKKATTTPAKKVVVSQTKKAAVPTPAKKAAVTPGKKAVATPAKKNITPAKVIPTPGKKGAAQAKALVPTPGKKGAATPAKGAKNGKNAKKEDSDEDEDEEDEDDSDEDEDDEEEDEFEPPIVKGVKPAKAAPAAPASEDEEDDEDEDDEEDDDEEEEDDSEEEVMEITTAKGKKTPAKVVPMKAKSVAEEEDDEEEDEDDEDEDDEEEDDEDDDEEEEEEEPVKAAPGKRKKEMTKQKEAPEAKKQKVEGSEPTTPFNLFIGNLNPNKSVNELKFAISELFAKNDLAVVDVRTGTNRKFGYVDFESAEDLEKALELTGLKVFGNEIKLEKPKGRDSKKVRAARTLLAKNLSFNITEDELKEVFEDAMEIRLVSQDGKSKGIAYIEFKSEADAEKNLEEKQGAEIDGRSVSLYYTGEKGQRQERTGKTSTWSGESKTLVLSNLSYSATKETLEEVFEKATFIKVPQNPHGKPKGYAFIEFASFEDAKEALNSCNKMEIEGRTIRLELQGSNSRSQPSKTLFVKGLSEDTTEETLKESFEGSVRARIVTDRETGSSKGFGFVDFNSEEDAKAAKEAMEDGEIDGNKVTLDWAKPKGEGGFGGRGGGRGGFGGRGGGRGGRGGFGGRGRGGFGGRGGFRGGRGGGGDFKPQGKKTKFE

Target: Biotinylated Bothrops asper myotoxin II (Bothrops asper) (UniProt P24605)
Assay: pull-down

Nucleolin (from UniProt P09405 1-707)
binding: binds
